PubChem BioAssay AID652243 | Drosophila RNAi Screening Center – 2013

Screen: 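Knock-downs that decrease or increase androgen receptor reporter signal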 (primary screen)
Cells: Drosophila S2R+ cells
Reagents: long dsRNA against Drosophila genes
Duration: 72 h (48 h, then 24 h hormone)
Conditions: synthetic androgen R1881 at 10 nM for 24 h
Measurement: 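Firefly light from an androgen-responsive reporter and Renilla control light per well, raw and unnormalised, for each of two replicates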
Scale: firefly reporter light: higher = more light from androgen-responsive reporter; Renilla control light: higher = more constitutive control signal (cell number, transfection)
Hit rule: 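Across duplicate plates, a knock-down whose log firefly/Renilla ratio shifted a set fold down or up from the GFP/LacZ control mean was a hit; the downward cut appears as both 1.5 and 3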
Meaning of the calls: active = hit: reporter lowered or raised; inactive = no hit
The deposit covers about 24,000 reagents; below is a random part of those with a known target gene and a result. In the full data, 246 (1%) were called active. 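Plates not normalised; calls are printed but the firefly/Renilla ratio behind them is not deposited; fold cut for lowering reported inconsistently.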 Raw values are not corrected between plates. No sequences are given here. Not given: the amount of reagent.

no.	Gene	dsRNA	firefly reporter light, replicate 1	firefly reporter light, replicate 2	Renilla control light, replicate 1	Renilla control light, replicate 2	Call
1	CG17187	DRSC15181	1.69e5	1.74e5	3.97e5	4.98e5	inactive
2	CG17187	DRSC29903	4.87e5	2.98e5	1.31e6	1.32e6	inactive
3	CBP	DRSC17746	1.40e5	1.67e5	8.48e5	5.94e5	inactive
4	Idh3a	DRSC19446	2.05e5	2.06e5	9.63e5	5.05e5	inactive
5	Idh3a	DRSC28303	7.42e5	9.15e5	1.70e6	2.21e6	inactive
6	CG8260	DRSC20098	6.64e5	4.84e5	6.42e6	4.26e6	inactive
7	emei	DRSC10897	4.91e5	3.38e5	2.87e6	2.94e6	inactive
8	emei	DRSC22684	5.18e5	3.86e5	1.38e6	9.21e5	inactive
9	Orc2	DRSC16776	46996	27410	4.10e5	2.09e5	inactive
10	dre4	DRSC08714	52685	63649	7.21e5	9.26e5	inactive
11	Hem	DRSC11865	13899	35557	2.81e5	2.76e5	inactive
12	Ir100a	DRSC14329	1.33e5	2.58e5	9.72e5	1.64e6	inactive
13	Ir100a	DRSC25881	3.25e5	4.09e5	1.10e6	9.93e5	inactive
14	CG31088	DRSC13123	1.59e5	1.12e5	2.55e5	2.48e5	inactive
15	CG31088	DRSC25600	6.31e5	5.70e5	7.62e5	9.43e5	inactive
16	Sf3b6	DRSC09972	2.04e5	3.23e5	2.29e6	3.37e6	inactive
17	Sf3b6	DRSC26462	3.19e5	3.74e5	5.38e5	5.35e5	inactive
18	CG33557	DRSC17854	2.80e5	3.59e5	2.71e6	2.53e6	inactive
19	CG8343	DRSC04905	1.14e6	6.72e5	1.81e6	2.18e6	inactive
20	CG8343	DRSC27692	2.10e5	2.26e5	4.41e5	5.25e5	inactive
21	vis	DRSC26134	2.81e5	3.05e5	7.27e5	7.54e5	inactive
22	TrissinR	DRSC02334	1.20e5	1.86e5	1.47e6	1.54e6	inactive
23	TrissinR	DRSC02335	72003	69684	1.54e6	9.21e5	inactive
24	TrissinR	DRSC02336	1.37e5	1.09e5	1.02e6	9.51e5	inactive
25	TrissinR	DRSC25084	7.26e5	6.32e5	8.60e5	8.96e5	inactive
26	TrissinR	DRSC26283	4.24e5	3.20e5	7.27e5	4.84e5	inactive
27	Osi8	DRSC12277	1.02e5	91095	2.13e6	3.37e6	inactive
28	Osi8	DRSC27462	2.50e5	2.79e5	5.56e5	6.46e5	inactive
29	CG1409	DRSC17910	2.33e5	3.13e5	2.53e6	2.79e6	inactive
30	CG9643	DRSC00722	81462	66132	1.14e6	7.58e5	inactive
31	CG9643	DRSC27948	7.68e5	3.74e5	2.87e6	1.34e6	inactive
32	Dph2	DRSC16222	39010	61932	3.52e5	3.15e5	inactive
33	Dph2	DRSC26401	1.78e5	2.77e5	4.38e5	6.35e5	inactive
34	CalpB	DRSC11109	5.54e5	5.98e5	5.40e5	6.39e5	inactive
35	CalpB	DRSC25885	2.99e5	3.11e5	8.78e5	7.43e5	inactive
36	Drsl4	DRSC08034	2.14e5	2.81e5	2.29e5	2.86e5	inactive
37	Drsl4	DRSC27159	5.06e5	4.87e5	6.68e5	6.33e5	inactive
38	Spn43Ad	DRSC06770	3.03e5	2.74e5	1.73e6	9.30e5	inactive
39	alpha-PheRS	DRSC18224	92314	63712	3.96e5	4.86e5	inactive
40	alpha-PheRS	DRSC24124	5.26e5	4.22e5	5.94e5	8.10e5	inactive
41	NC2alpha	DRSC04059	6.81e5	8.97e5	2.53e6	2.52e6	inactive
42	NC2alpha	DRSC25348	5.74e5	6.90e5	3.97e5	3.85e5	inactive
43	CG34295	DRSC38656	8.91e5	7.47e5	1.97e6	1.97e6	inactive
44	CG10936	DRSC05669	1.36e5	1.35e5	3.52e5	3.10e5	inactive
45	CG10936	DRSC05670	1.88e5	1.62e5	4.83e5	4.76e5	inactive
46	CG10936	DRSC06018	71651	73161	1.14e6	1.14e6	inactive
47	GstE1	DRSC07437	56782	1.69e5	1.15e6	1.15e6	inactive
48	GstE1	DRSC24708	5.84e5	3.89e5	5.04e5	4.30e5	inactive
49	ovo	DRSC18050	70940	55426	4.62e5	5.72e5	inactive
50	ovo	DRSC25801	2.87e5	3.03e5	7.83e5	6.37e5	inactive
51	qkr58E-2	DRSC04710	1.09e5	1.30e5	1.68e6	1.62e6	inactive
52	qkr58E-2	DRSC25296	4.95e5	3.38e5	5.25e5	3.80e5	inactive
53	Cul6	DRSC09830	7.85e5	8.14e5	1.45e6	2.16e6	inactive
54	CG34256	DRSC38833	8.57e5	8.36e5	2.41e6	2.20e6	inactive
55	CG44251	DRSC06856	3.42e5	2.12e5	1.62e6	1.16e6	inactive
56	CG44251	DRSC24631	6.27e5	1.06e6	7.79e5	1.02e6	inactive
57	CG6576	DRSC10663	2.28e5	2.55e5	2.42e6	2.11e6	inactive
58	CG6576	DRSC28084	5.22e5	5.26e5	1.13e6	1.18e6	inactive
